Data as given in publication doi:10.1101/2025.10.29.685130.

By UniProt entry, the sequences of proteins in these tests, tags left out.
UniProt P63141: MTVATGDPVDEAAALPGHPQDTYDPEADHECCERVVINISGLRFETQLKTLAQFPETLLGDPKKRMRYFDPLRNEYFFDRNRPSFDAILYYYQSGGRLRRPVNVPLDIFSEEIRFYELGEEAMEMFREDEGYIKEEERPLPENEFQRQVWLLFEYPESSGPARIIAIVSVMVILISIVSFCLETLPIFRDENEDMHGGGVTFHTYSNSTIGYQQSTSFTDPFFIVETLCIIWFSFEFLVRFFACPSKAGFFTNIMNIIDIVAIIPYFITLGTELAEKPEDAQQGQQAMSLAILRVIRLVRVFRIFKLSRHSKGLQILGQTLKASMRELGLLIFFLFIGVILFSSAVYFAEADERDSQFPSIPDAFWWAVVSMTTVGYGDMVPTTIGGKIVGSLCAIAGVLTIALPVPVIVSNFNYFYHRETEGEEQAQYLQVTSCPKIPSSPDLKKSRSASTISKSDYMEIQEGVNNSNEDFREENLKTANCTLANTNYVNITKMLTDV

B1: Add1 (protein, UniProt Q9QYC0 1-735)
chain: MNGDTRAAVVTSPPPTTAPHKERYFDRVDENNPEYLRERNMAPDLRQDFNMMEQKKRVSMILQSPAFCEELESMIQEQFKKGKNPTGLLALQQIADFMTASVPNVYPAAPQGGMAALNMSLGMVTPVNDLRGSDSIAYDKGEKLLRCKLAAFYRLADLFGWSQLIYNHITTRVNSEQEHFLIVPFGLLYSEVTASSLVKVNLQGDIVDRGSTNLGVNQAGFTLHSAVYAARPDAKCIVHIHTPAGAAVSAMKCGLLPISPEALSLGDVAYHDYHGILVDEEEKILIQKNLGPKSKVLILRNHGLVSVGESVEEAFYYIHNLVVACEIQVRTLASAGGPDNLVLLDPGKYKAKSRSPGTPAGEGSGSPPKWQIGEQEFEALMRMLDNLGYRTGYPYRYPALRERSKKYSDVEVPASVTGHSFASDGDSGTCSPLRHSFQKQQREKTRWLHSGRGDDASEEGQNGSSPKSKTKWTKEDGHRTSTSAVPNLFVPLNTNPKEVQEMRNKIREQNLQDIKTAGPQSQVLCGVMMDRSLVQGELVTASKAIIEKEYQPHVIVSTTGPNPFNTLTDRELEEYRREVERKQKGSEENLDETREQKEKSPPDQSAVPNTPPSTPVKLEEDLPQEPTSRDDSDATTFKPTPPDLSPDEPSEALAFPAVEEEAHASPDPTQPPAEADPEPASAPTPGAEEVASPATEEGSPMDPGSDGSPGKSPSKKKKKFRTPSFLKKSKKKSDS
B2: Gda (protein, UniProt Q9R111 1-454)
chain: MCAARTPPLALVFRGTFVHSTWTCPMEVLRDHLLGVSDSGKIVFLEESSQQEKLAKEWCFKPCEIRELSHHEFFMPGLVDTHIHAPQYAFAGSNVDLPLLEWLNKYTFPTEQRFRSTDVAEEVYTRVVRRTLKNGTTTACYFGTIHTDSSLILAEITDKFGQRAFVGKVCMDLNDTVPEYKETTEESVKETERFVSEMLQKNYPRVKPIVTPRFTLSCTETLMSELGNIAKTHDLYIQSHISENREEIEAVKSLYPSYKNYTDVYDKNNLLTNKTVMAHGCYLSEEELNIFSERGASIAHCPNSNLSLSSGLLNVLEVLKHKVKIGLGTDVAGGYSYSMLDAIRRAVMVSNVLLINKVNEKNLTLKEVFRLATLGGSQALGLDSEIGNFEVGKEFDALLINPRASDSPIDLFYGDFVGDISEAVIQKFLYLGDDRNIEEVYVGGKQVVPFSSSV
B3: Gas7 (protein, UniProt Q60780 1-421)
chain: MATALQKPGMVPPPPGEESQTVILPPGWHSYLSPQGRRYYVNTTTNETTWERPSSSPGISASPAPHRSSLPTTVNGYHASGTPAHPPETAHMSLRKSTGDSQNLGSSSPGRKQSKENTITINCVTFPHPDTMPEQQLLKPTEWSYCDYFWADKKDPQGNGTVAGFELLLQKQLKGKQMQKEMSEFIRERIKIEEEYAKNLAKLSQNSLAAQEEGSLGEAWAQVKKSLADEAEVHLKFSAKLHSEVEKPLMNFRENFKKDMKKCDHHIADLRKQLASRYASVEKARKALTERQKDLEMKTQQLEIKLSNKTEEDIKKARRKSTQAGDDLMRCVDLYNQAQSKWFEEMVTTTLELERLEVERVEMIRQHLCQYTQLRHETDMFNQSTVEPVDQLLRKVDPAKDRELWVREHKTGNIRPVDMEI
B4: septin 8 (protein, UniProt Q8CHH9 1-429)
chain: MAATDLERVSNAEPEPRSLSLGGHVGFDSLPDQLVSKSVTQGFSFNILCVGETGIGKSTLMNTLFNTTFETEEASHHEECVRLRPQTYDLQESNVHLKLTIVDAVGFGDQINKDDSYRPIVDYIDAQFENYLQEELKIRRSLFDYHDTRIHVCLYFITPTGHSLKSLDLVTMKKLDSKVNIIPIIAKADTISKSELHKFKIKIMGELVSNGVQIYQFPTDDEAVAEINAVMNAHLPFAVVGSTEEVKVGNKLVRARQYPWGVVQVENENHCDFVKLREMLIRVNMEDLREQTHSRHYELYRRCKLEEMGFQDSDGDSQPFSLQETYEAKRKEFLSELQRKEEEMRQMFVNKVKETELELKEKERELHEKFEHLKRIHQEEKRKVEEKRRELEEETNAFNCRKAAMEALQSQALHATSQQPLRKDKDKKN
B5: Kvβ2 (protein, UniProt P62482 1-367)
chain: MYPESTTGSPARLSLRQTGSPGMIYSTRYGSPKRQLQFYRNLGKSGLRVSCLGLGTWVTFGGQITDEMAEHLMTLAYDNGINLFDTAEVYAAGKAEVVLGNIIKKKGWRRSSLVITTKIFWGGKAETERGLSRKHIIEGLKASLERLQLEYVDVVFANRPDPNTPMEETVRAMTHVINQGMAMYWGTSRWSSMEIMEAYSVARQFNLIPPICEQAEYHMFQREKVEVQLPELFHKIGVGAMTWSPLACGIVSGKYDSGIPPYSRASLKGYQWLKDKILSEEGRRQQAKLKELQAIAERLGCTLPQLAIAWCLRNEGVSSVLLGASNAEQLMENIGAIQVLPKLSSSIVHEIDSILGNKPYSKKDYRS
B6: septin 11 (protein, UniProt Q8C1B7 1-431)
chain: MAVAVGRPSNEELRNLSLSGHVGFDSLPDQLVNKSTSQGFCFNILCVGETGIGKSTLMDTLFNTKFESDPATHNEPGVRLKARSYELQESNVRLKLTIVDTVGFGDQINKDDSYKPIVEYIDAQFEAYLQEELKIKRSLFNYHDTRIHACLYFIAPTGHSLKSLDLVTMKKLDSKVNIIPIIAKADTIAKNELHKFKSKIMSELVSNGVQIYQFPTDEETVAEINATMSVHLPFAVVGSTEEVKIGNKMAKARQYPWGVVQVENENHCDFVKLREMLIRVNMEDLREQTHTRHYELYRRCKLEEMGFKDTDPDSKPFSLQETYEAKRNEFLGELQKKEEEMRQMFVMRVKEKEAELKEAEKELHEKFDLLKRTHQEEKKKVEDKKKELEEEVSNFQKKKAAAQLLQSQAQQSGAQQTKKDKDKKNPWLCTE
B7: septin 5 (protein, UniProt Q9Z2Q6 1-369)
chain: MSTGLRYKSKLATPEDKQDIDKQYVGFATLPNQVHRKSVKKGFDFTLMVAGESGLGKSTLVHSLFLTDLYKDRKLLSAEERINQTVEILKHTVDIEEKGVKLKLTIVDTPGFGDAVNNSECWKPITDYVDQQFEQYFRDESGLNRKNIQDNRVHCCLYFISPFGHGLRPVDVGFMKALHEKVNIVPLIAKADCLVPSEIRKLKDRIREEIDKFGIHVYQFPECDSDEDEDFKQQDRELKESAPFAVIGSNTVVEAKGQRVRGRLYPWGIVEVENQAHCDFVKLRNMLIRTHMHDLKDVTCDVHYENYRAHCIQQMTSKLTQDSRMESPIPILPLPTPDAETEKLIRMKDEELRRMQEMLQKMKQQMQDQ
B8: AP3b2 (protein, UniProt Q9JME5 1-1082)
chain: MSAAPAYSEDKGGSAGPGEPEYGHDPASGGIFSSDYKRHDDLKEMLDTNKDSLKLEAMKRIVAMIARGKNASDLFPAVVKNVACKNIEVKKLVYVYLVRYAEEQQDLALLSISTFQRGLKDPNQLIRASALRVLSSIRVPIIVPIMMLAIKEAASDMSPYVRKTAAHAIPKLYSLDSDQKDQLIEVIEKLLADKTTLVAGSVVMAFEEVCPERIDLIHKNYRKLCNLLIDVEEWGQVVIISMLTRYARTQFLSPTQNESLLEENPEKAFYGSEEDEAKGPGSEEAATAALPARKPYVMDPDHRLLLRNTKPLLQSRSAAVVMAVAQLYFHLAPKAEVGVIAKALVRLLRSHSEVQYVVLQNVATMSIKRRGMFEPYLKSFYIRSTDPTQIKILKLEVLTNLANETNIPTVLREFQTYIRSMDKDFVAATIQAIGRCATNIGRVRDTCLNGLVQLLSNRDELVVAESVVVIKKLLQMQPAQHGEIIKHLAKLTDNIQVPMARASILWLIGEYCEHVPKIAPDVLRKMAKSFTAEEDIVKLQVINLAAKLYLTNSKQTKLLTQYVLSLAKYDQNYDIRDRARFTRQLIVPSEQGGALSRHAKKLFLAPKPAPILESSFKDRDHFQLGSLSHLLNAKATGYQELPDWPEEAPDPSVRNVEVPEWTKCSNREKRKEKEKPFYSDSEGESGPTESADSEPESESESESKSSSGSGSGESSSESDNEEEDEEKGGGSESEQSEEEDEKKKKTKKKKASEGHREGSSSEEGSDSSSSSESEVTSESEEEQVEPASWRKKTPPGSKSAPVAKEISLLDLEDFTPPSVQPVSPPMVVSTSLAADLEGLTLTDSSLVPSLLSPVSSIGRQELLHRVAGEGLSVDYAFSRQPFSGDPHMVSLHIYFSNNSETPIKGLHVGTPKLPAGISIQEFPEIESLAPGESTTTVMGINFCDSTQAANFQLCTQTRQFYVSIQPPVGELMAPVFMSENEFKKEQGKLTGMNEITEKLTLPDTCRSDHMVVQKVTATANLGRVPCGTSDEYRFAGRTLTSGSLVLLTLDARAAGAAQLTVNSEKMVIGTMLVKDVIQALTQ
B9: AP3d1 (protein, UniProt O54774 1-1199)
chain: MALKMVKGSIDRMFDKNLQDLVRGIRNHKEDEAKYISQCIDEIKQELKQDNIAVKANAVCKLTYLQMLGYDISWAAFNIIEVMSASKFTFKRVGYLAASQCFHEGTDVIMLTTNQIRKDLSSPSQYDTGVALTGLSCFVTPDLARDLANDIMTLMSHTKPYIRKKAVLIMYKVFLKYPESLRPAFPRLKEKLEDPDPGVQSAAVNVICELARRNPKNYLSLAPLFFKLMTSSTNNWVLIKIIKLFGALTPLEPRLGKKLIEPLTNLIHSTSAMSLLYECVNTVIAVLISLSSGMPNHSASIQLCVQKLRILIEDSDQNLKYLGLLAMSKILKTHPKSVQSHKDLILQCLDDKDESIRLRALDLLYGMVSKKNLMEIVKKLMTHVDKAEGTTYRDELLTKIIDICSQSNYQHITNFEWYISILVELTRLEGTRHGHLIAAQMLDVAIRVKAIRKFAVSQMSSLLDSAHLVASSTQRNGICEVLYAAAWICGEFSEHLQGPQQTLEAMLRPKVTTLPGHIQAVYVQNVVKLYASILQQKEQAADTEAAQEVTQLLVERLPQFVQSADLEVQERASCILQLVKHVQKLQAKGVPVAEEVSALFAGELNPVAPKAQKKVPVPEGLDLDAWINEPPSDSESEDEKPKAIFHEEEPRHTRRRQPEEDEEELARRREARKQEQANNPFYIKSSPSPQKRYQDAPGVEHIPVVQIDLSVPLKVPGMPMSDQYVKLEEQRRHRQRLEKDKKRKKKEKGKRRHSSLPTESDEDIAPAQRVDIITEEMPENALPSDEDDKDPNDPYRALDIDLDKPLADSEKLPVQKHRNAEAVKSPEKEGVLGVEKKSKKPKKKEKKTKEREREKKDKKGEDLDFWLSTTPPPAAAPIPAPSTEELAASTITSPKDECEVLKGEEEDHVDHDQERKSSRHKKKKHRKEKEKEERPRDKKKAKKKQVAPLENGAAAEEEEEPIPPMSSYCLLAESPYIKVTYDIQASLQKDSQVTVSIILENQSSSFLKNMELNVLDSLNTKMTRPEGSSVHDGVPVPFQLPPGVSNEAQFVFTIQSIVMAQKLKGTLSFIAKDDEGATHEKLDFRLHFSCSSYLITTPCYSDAFAKLLESGDLSMNSIKVDGISMSFQNLLAKICFYHHFSVVERVDSCASMYSRSIQGHHVCLLVKKGESSVSVDGKCSDATLLSSLLEEMKTTLAQC

biological target: phosphoY458 Kv1.2 (mouse) (UniProt P63141); assay: affinity purification with mass spectrometry

binding, binds:
B1
B2
B3
B4
B5
B6
B7
B8
B9

Results are given in words; binding and its absence hold for the method and conditions named. In cells and extracts the contact can be indirect. These calls come from enrichment with a bait or labelling near it, and not all partners need be listed.
